This note sets out measurements from paper PMC4539528.

Protein sequences, listed by entry. Tags and fused reporters are not part of them. Lines headed by an entry give the natural chain unless they say otherwise; changes in a name come on top.
UniProt P15116: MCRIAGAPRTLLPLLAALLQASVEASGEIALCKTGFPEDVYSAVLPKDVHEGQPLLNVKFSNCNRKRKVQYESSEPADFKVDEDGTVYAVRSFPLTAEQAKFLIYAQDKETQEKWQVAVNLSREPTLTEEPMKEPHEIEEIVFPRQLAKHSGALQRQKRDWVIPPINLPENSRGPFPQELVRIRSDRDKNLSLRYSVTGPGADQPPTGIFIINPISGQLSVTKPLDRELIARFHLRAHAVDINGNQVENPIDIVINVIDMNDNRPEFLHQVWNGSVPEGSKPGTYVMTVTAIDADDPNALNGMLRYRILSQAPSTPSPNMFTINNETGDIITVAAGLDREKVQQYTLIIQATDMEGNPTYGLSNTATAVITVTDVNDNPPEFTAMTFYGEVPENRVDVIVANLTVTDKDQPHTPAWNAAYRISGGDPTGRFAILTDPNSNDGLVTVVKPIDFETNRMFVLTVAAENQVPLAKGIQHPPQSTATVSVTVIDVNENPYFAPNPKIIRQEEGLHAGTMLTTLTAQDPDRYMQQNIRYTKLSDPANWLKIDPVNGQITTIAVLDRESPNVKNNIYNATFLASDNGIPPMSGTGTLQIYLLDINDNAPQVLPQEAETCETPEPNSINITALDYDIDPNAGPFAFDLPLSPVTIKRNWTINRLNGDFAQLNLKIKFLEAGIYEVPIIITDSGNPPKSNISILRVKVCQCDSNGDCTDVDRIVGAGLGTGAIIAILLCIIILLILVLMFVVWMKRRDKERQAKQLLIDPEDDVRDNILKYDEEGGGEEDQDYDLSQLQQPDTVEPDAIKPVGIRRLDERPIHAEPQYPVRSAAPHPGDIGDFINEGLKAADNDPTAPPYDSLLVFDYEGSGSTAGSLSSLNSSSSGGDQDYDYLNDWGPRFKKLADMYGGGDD

This assay concerns the target RFP-Ncad (full-length N-cadherin) (UniProt P15116). In words: co-IP; HA-Myo10^FERM co-expressed with RFP-Ncad in HEK293T cells; immunoprecipitated by anti-RFP antibody or mIgG; immunoblot. (In western blotting, separated proteins are transferred to a membrane and probed.)

These are yes or no findings as the source states them, for the method shown. In cells and extracts the contact can be indirect. A result given as binding can be weak or reduced; the word gives no strength. Where a sequence is shown, tags or fusion partners need not be part of it.

B1: HA-Myo10^FERM (domain or fragment, UniProt F8VQB6 1704-2048)
chain: MTSTVYCHGGGSCKITINSHTTAGEVVEKLIRGLAMEDSRNMFALFEYNGQVDKAIESRTIVADVLAKFEKLAATSEAGDAPWKFYFKLYCFLDTDSMPKDSVEFAFMFEQAHEAVIHGHHPAPEESLQVLAALRLQYLQGDYTPHTSIPPLEEVYSVQRLRARISQSTKTFTPYERLEKRRTSFLEGTLRRSFRTGSVVRQKAEEEQMLDMWIKEEVCSARTSIIDKWKKLQGMNQEQAMAKYMALIKEWPGYGSTLFDVECKEGGFPQELWLGVSADAVSVYKRGEGKPLEVFQYEHILSFGAPLANTYKIVVDERELLFETSEVVDVAKLMKAYISMIVKKR
On to B1, for which the binding result was “binds”.
